Some of these results come from one statement about several compounds together.
Molecular target: T1, recombinant murine Aurora A enzyme (Mus musculus, UniProt P97477)
T1 construct: hexahistidine (His6) (N); made in house; host or cells: insect cells, baculovirus (Bac-to-Bac, Invitrogen)
Assay: Aurora A DELFIA Kinase Assay
Type: biochemical
Details: 250 μM ATP, threshold less than or equal to 1.0 μM

Protein sequences, listed by entry. Tags and fused reporters are not part of them. Lines headed by an entry give the natural chain unless they say otherwise; changes in a name come on top.
UniProt P97477: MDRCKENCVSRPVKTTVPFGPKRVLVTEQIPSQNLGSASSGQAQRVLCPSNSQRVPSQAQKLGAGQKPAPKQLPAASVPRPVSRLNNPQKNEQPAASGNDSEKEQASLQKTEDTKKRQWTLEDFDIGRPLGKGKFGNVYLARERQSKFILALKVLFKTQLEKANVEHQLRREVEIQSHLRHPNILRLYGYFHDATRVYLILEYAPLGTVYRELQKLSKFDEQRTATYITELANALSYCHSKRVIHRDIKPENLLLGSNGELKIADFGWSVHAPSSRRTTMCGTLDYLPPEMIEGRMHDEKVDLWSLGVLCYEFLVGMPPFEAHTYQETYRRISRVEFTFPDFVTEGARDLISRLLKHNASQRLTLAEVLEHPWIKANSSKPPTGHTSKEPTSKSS

| SMILES | IC50 [µM] |
| --- | --- |
| CNC(=O)c1ccc2c(c1)C(c1c(F)cccc1F)=NCc1cnc(Nc3ccc(C(=O)N4CC(C)NC(C)C4)cc3)nc1-2 (stereo not shown) [Compound I-376, 7-(2,6-difluorophenyl)-2-({4-[(3,5-dimethylpiperazin-1-yl)carbonyl]phenyl}amino)-N-methyl-5H-pyrimido[5,4-d][2]benzazepine-9-carboxamide] | ≤ 1 |
| CNC1CN(C(=O)c2ccc(Nc3ncc4c(n3)-c3ccc(Cl)cc3C(c3c(F)cccc3F)=NC4)cc2)C1 [Compound I-234, 9-chloro-7-(2,6-difluorophenyl)-N-(4-{[3-(methylamino)azetidin-1-yl]carbonyl}phenyl)-5H-pyrimido[5,4-d][2]benzazepin-2-amine] | ≤ 1 |
| CCOC(=O)C(N)CCNC(=O)c1ccc(Nc2ncc3c(n2)-c2ccc(Cl)cc2C(c2c(F)cccc2F)=NC3)cc1 (stereo not shown) [Compound I-300, ethyl 2-amino-4-[(4-{[9-chloro-7-(2,6-difluorophenyl)-5H-pyrimido[5,4-d][2]benzazepin-2-yl]amino}benzoyl)amino]butanoate] | ≤ 1 |
| O=C(NCCN1CCOCC1)c1ccc(Nc2ncc3c(n2)-c2ccc(Cl)cc2C(c2ccccc2F)=NC3)cc1 [Compound I-29, 4-[9-Chloro-7-(2-fluoro-phenyl)-5H-benzo[c]pyrimido[4,5-e]azepin-2-ylamino]-N-(2-morpholin-4-yl-ethyl)-benzamide] | ≤ 1 |
| CN(C)CCCN1CCN(C(=O)c2ccc(Nc3ncc4c(n3)-c3ccc(Cl)cc3C(c3ccccc3F)=NC4)cc2)CC1 [Compound I-210, 9-chloro-N-[4-({4-[3-(dimethylamino)propyl]piperazin-1-yl}carbonyl)phenyl]-7-(2-fluorophenyl)-5H-pyrimido[5,4-d][2]benzazepin-2-amine] | ≤ 1 |
| CN(C)CCNC(=O)c1ccc(Nc2ncc3c(n2)-c2ccc(Cl)cc2C(c2ccccc2F)=NC3)cc1 [Compound I-4, 4-[9-Chloro-7-(2-fluoro-phenyl)-5H-benzo[c]pyrimido[4,5-e]azepin-2-ylamino]-N-(2-dimethylamino-ethyl)-benzamide] | ≤ 1 |
| CN(CCCN)C(=O)c1ccc(Nc2ncc3c(n2)-c2ccc(Cl)cc2C(c2c(F)cccc2F)=NC3)cc1 [Compound I-257, N-(3-aminopropyl)-4-{[9-chloro-7-(2,6-difluorophenyl)-5H-pyrimido[5,4-d][2]benzazepin-2-yl]amino}-N-methylbenzamide] | ≤ 1 |
| CN(C)C1CCN(C(=N)c2ccc(Nc3ncc4c(n3)-c3ccc(Cl)cc3C(c3c(F)cccc3F)=NC4)cc2)CC1 [Compound I-244, 9-chloro-7-(2,6-difluorophenyl)-N-{4-[[4-(dimethylamino)piperidin-1-yl](imino)methyl]phenyl}-5H-pyrimido[5,4-d][2]benzazepin-2-amine] | ≤ 1 |
| CN(C)C1CCN(C(=O)c2cc(Nc3ncc4c(n3)-c3ccc(Cl)cc3C(c3c(F)cccc3F)=NC4)ccc2Cl)CC1 [Compound I-269, 9-chloro-N-(4-chloro-3-{[4-(dimethylamino)piperidin-1-yl]carbonyl}phenyl)-7-(2,6-difluorophenyl)-5H-pyrimido[5,4-d][2]benzazepin-2-amine] | ≤ 1 |
| CNC1CCN(C(=N)c2ccc(Nc3ncc4c(n3)-c3ccc(Cl)cc3C(c3c(F)cccc3F)=NC4)cc2)C1 (stereo not shown) [Compound I-268, 9-chloro-7-(2,6-difluorophenyl)-N-(4-{imino[3-(methylamino)pyrrolidin-1-yl]methyl}phenyl)-5H-pyrimido[5,4-d][2]benzazepin-2-amine] | ≤ 1 |
| O=C(O)C1CN=C(c2ccc(Nc3ncc4c(n3)-c3ccc(Cl)cc3C(c3c(F)cccc3F)=NC4)cc2)N1 (stereo not shown) [Compound I-306, 2-(4-{[9-chloro-7-(2,6-difluorophenyl)-5H-pyrimido[5,4-d][2]benzazepin-2-yl]amino}phenyl)-4,5-dihydro-1H-imidazole-5-carboxylic acid] | ≤ 1 |
| CN(CCN)C(=O)c1ccc(Nc2ncc3c(n2)-c2ccc(Cl)cc2C(c2c(F)cccc2F)=NC3)cc1 [Compound I-252, N-(2-aminoethyl)-4-{[9-chloro-7-(2,6-difluorophenyl)-5H-pyrimido[5,4-d][2]benzazepin-2-yl]amino}-N-methylbenzamide] | ≤ 1 |
| NC1CCN(C(=O)c2cc(Nc3ncc4c(n3)-c3ccc(Cl)cc3C(c3c(F)cccc3F)=NC4)ccc2Cl)CC1 [Compound I-292, N-{3-[(4-aminopiperidin-1-yl)carbonyl]-4-chlorophenyl}-9-chloro-7-(2,6-difluorophenyl)-5H-pyrimido[5,4-d][2]benzazepin-2-amine] | ≤ 1 |
| O=C(O)c1ccc(Nc2ncc3c(n2)-c2ccc(Cl)cc2C(c2ccccc2Cl)=NC3)cc1O [Compound I-86, 4-[9-Chloro-7-(2-chloro-phenyl)-5H-benzo[c]pyrimido[4,5-e]azepin-2-ylamino]-2-hydroxy-benzoic acid] | ≤ 1 |
| CNC1CCN(C(=O)c2coc(Nc3ncc4c(n3)-c3ccc(Cl)cc3C(c3c(F)cccc3F)=NC4)n2)C1 (stereo not shown) [Compound I-375, 9-chloro-7-(2,6-difluorophenyl)-N-(4-{[3-(methylamino)pyrrolidin-1-yl]carbonyl}-1,3-oxazol-2-yl)-5H-pyrimido[5,4-d][2]benzazepin-2-amine] | ≤ 1 |
| Cc1ccccc1C1=NCc2cnc(Nc3ccc(C(=O)O)cc3)nc2-c2ccc(Cl)cc21 [Compound I-54, 4-(9-Chloro-7-o-tolyl-5H-benzo[c]pyrimido[4,5-e]azepin-2-ylamino) -benzoic acid] | ≤ 1 |
| NS(=O)(=O)c1ccc(Nc2ncc3c(n2)-c2ccc(Cl)cc2C(c2ccccc2F)=NC3)cc1 [Compound I-68, 4-[9-Chloro-7-(2-fluoro-phenyl)-5H-benzo[c]pyrimido[4,5-e]azepin-2-ylamino]-benzenesulfonamide] | ≤ 1 |
| O=C(O)c1ccc(Nc2ncc3c(n2)-c2ccc(Cl)cc2C(c2ccccc2Cl)=NC3)cc1 [Compound I-53, 4-[9-Chloro-7-(2-chloro-phenyl)-5H-benzo[c]pyrimido[4,5-e]azepin-2-ylamino]-benzoic acid] | ≤ 1 |
| NC1CCN(C(=O)c2ccc(Nc3ncc4c(n3)-c3ccc(Cl)cc3C(c3ccccc3F)=NC4)cc2)C1 (stereo not shown) [Compound I-103, (3-Amino-pyrrolidin-1-yl)-{4-[9-chloro-7-(2-fluoro-phenyl)-5H-benzo[c]pyrimido[4,5-e]azepin-2-ylamino]-phenyl}-methanone] | ≤ 1 |
| O=C(O)c1ccc(Nc2ncc3c(n2)-c2ccc(Cl)cc2C(c2ccc(F)cc2F)=NC3)cc1 [Compound I-96, 4-[9-Chloro-7-(2,4-difluoro-phenyl)-5H-benzo[c]pyrimido[4,5-e]azepin-2-ylamino]-benzoic acid] | ≤ 1 |
| CC1CN(C(=O)c2cnc(Nc3ncc4c(n3)-c3ccc(Cl)cc3C(c3c(F)cccc3F)=NC4)o2)CC(C)N1 (stereo not shown) [Compound I-369, 9-chloro-7-(2,6-difluorophenyl)-N-{5-[(3,5-dimethylpiperazin-1-yl)carbonyl]-1,3-oxazol-2-yl}-5H-pyrimido[5,4-d][2]benzazepin-2-amine] | ≤ 1 |
| CNC1CCCN(C(=O)c2ccc(Nc3ncc4c(n3)-c3ccc(Cl)cc3C(c3c(F)cccc3F)=NC4)cc2)C1 (stereo not shown) [Compound I-253, 9-chloro-7-(2,6-difluorophenyl)-N-(4-{[3-(methylamino)piperidin-1-yl]carbonyl}phenyl)-5H-pyrimido[5,4-d][2]benzazepin-2-amine] | ≤ 1 |

From patent US9102678B2, “Compounds and methods for inhibiting mitotic progression” (Millennium Pharmaceuticals, Inc., priority 2004, dated 2015)
